Source: article PMC5841781
Results are given in words; binding and its absence hold for the method and conditions named. For some of these results: In cells and extracts the contact can be indirect. Some results given as binding are weak or reduced against the parent protein; the word gives no strength. Tags and fused reporters may be left off the sequences shown.

Tests used:
[1] = biological target: T1, BD-MED8 (full-length MED8 fused to the Gal4 DNA binding domain, pGBKT7-MED8) (Arabidopsis thaliana) (UniProt Q4V3C1); experiment: two-hybrid; screen with BD-MED8 (full-length MED8 on the Gal4 DNA binding domain) as bait; clones identified by prototrophy for His and Ade
T1 sequence: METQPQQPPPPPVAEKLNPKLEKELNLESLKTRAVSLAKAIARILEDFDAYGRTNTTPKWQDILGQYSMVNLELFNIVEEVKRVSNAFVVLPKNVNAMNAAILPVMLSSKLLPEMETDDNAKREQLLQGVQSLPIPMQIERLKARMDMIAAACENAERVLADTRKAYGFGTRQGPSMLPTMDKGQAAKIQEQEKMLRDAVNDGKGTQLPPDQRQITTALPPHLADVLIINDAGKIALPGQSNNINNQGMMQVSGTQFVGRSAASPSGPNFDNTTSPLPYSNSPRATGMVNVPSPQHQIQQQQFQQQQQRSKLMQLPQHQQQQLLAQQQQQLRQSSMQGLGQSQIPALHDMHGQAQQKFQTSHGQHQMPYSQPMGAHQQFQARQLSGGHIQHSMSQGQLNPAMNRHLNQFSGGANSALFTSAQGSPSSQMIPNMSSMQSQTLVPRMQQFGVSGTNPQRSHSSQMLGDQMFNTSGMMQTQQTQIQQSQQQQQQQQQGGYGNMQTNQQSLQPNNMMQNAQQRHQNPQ

[2] = biological target: T1, BD-MED8 (full-length MED8 fused to the Gal4 DNA binding domain, pGBKT7-MED8) (Arabidopsis thaliana); experiment: two-hybrid; Matchmaker GAL4 system, baits in pGBKT7 and preys in pGADT7 co-transformed into S. cerevisiae AH109; growth on SD/-Ade/-His/-Leu/-Trp after 3 d at 30°C
[3] = biological target: T2, MED8-nLUC (nLUC-tagged MED8, in pCAMBIA1300-nLUC) (Arabidopsis thaliana) (UniProt Q4V3C1); experiment: split reporter; split-luciferase complementation (Split-LUC) by transient expression in N. benthamiana leaves; luminescence after spraying 0.5 mM luciferin
T2 sequence: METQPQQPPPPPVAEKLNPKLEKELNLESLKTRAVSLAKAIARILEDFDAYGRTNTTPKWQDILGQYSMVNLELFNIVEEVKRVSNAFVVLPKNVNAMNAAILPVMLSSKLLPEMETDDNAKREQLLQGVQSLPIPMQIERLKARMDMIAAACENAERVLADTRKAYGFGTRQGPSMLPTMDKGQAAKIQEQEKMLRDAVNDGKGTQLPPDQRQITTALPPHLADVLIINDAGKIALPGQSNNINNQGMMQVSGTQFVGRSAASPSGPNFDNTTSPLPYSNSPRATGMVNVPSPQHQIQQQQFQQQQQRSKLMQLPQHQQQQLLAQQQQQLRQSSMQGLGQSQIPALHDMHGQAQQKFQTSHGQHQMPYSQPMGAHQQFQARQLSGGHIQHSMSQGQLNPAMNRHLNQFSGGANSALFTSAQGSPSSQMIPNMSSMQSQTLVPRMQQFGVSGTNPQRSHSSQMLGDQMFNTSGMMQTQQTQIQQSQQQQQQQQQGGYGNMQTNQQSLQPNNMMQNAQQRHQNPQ

[4] = biological target: T3, MED8-GFP (35Spro:MED8-GFP) (Arabidopsis thaliana) (UniProt Q4V3C1); experiment: co-IP; extracts of N. benthamiana leaves co-infiltrated with 35Spro:MED8-GFP and 35Spro:FAMA-HA; precipitated with GFP antibody-bound agarose beads, 1 h at 4°C; 50 mM Tris-HCl pH 7.5, 150 mM NaCl, 0.1% Triton X-100, 0.2% Nonidet P-40; blots with anti-HA and anti-GFP
T3 sequence: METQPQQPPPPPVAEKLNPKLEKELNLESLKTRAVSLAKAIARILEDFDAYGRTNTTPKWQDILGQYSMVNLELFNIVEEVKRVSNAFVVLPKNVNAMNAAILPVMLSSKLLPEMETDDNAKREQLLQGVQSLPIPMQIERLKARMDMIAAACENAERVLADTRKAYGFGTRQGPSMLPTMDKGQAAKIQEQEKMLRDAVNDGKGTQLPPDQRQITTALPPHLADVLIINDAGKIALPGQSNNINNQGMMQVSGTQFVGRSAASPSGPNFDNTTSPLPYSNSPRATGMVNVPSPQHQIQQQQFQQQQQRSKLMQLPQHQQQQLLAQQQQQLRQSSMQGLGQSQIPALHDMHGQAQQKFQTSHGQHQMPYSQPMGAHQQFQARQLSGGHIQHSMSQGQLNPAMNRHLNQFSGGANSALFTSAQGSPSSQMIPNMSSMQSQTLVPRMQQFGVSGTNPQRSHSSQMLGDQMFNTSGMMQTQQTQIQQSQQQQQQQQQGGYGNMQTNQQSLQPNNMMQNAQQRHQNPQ

B1: clones encoding FAMA found in the yeast two-hybrid screen with BD-MED8 (protein, UniProt Q56YJ8 1-414)
chain: MDKDYSAPNFLGESSGGNDDNSSGMIDYMFNRNLQQQQKQSMPQQQQHQLSPSGFGATPFDKMNFSDVMQFADFGSKLALNQTRNQDDQETGIDPVYFLKFPVLNDKIEDHNQTQHLMPSHQTSQEGGECGGNIGNVFLEEKEDQDDDNDNNSVQLRFIGGEEEDRENKNVTKKEVKSKRKRARTSKTSEEVESQRMTHIAVERNRRKQMNEHLRVLRSLMPGSYVQRGDQASIIGGAIEFVRELEQLLQCLESQKRRRILGETGRDMTTTTTSSSSPITTVANQAQPLIITGNVTELEGGGGLREETAENKSCLADVEVKLLGFDAMIKILSRRRPGQLIKTIAALEDLHLSILHTNITTMEQTVLYSFNVKITSETRFTAEDIASSIQQIFSFIHANTNISGSSNLGNIVFT
binding [1]: binds

B2: AD-FAMA (full-length coding sequence of FAMA in the prey vector, pGADT7-FAMA) (protein, UniProt Q56YJ8 1-414)
chain: MDKDYSAPNFLGESSGGNDDNSSGMIDYMFNRNLQQQQKQSMPQQQQHQLSPSGFGATPFDKMNFSDVMQFADFGSKLALNQTRNQDDQETGIDPVYFLKFPVLNDKIEDHNQTQHLMPSHQTSQEGGECGGNIGNVFLEEKEDQDDDNDNNSVQLRFIGGEEEDRENKNVTKKEVKSKRKRARTSKTSEEVESQRMTHIAVERNRRKQMNEHLRVLRSLMPGSYVQRGDQASIIGGAIEFVRELEQLLQCLESQKRRRILGETGRDMTTTTTSSSSPITTVANQAQPLIITGNVTELEGGGGLREETAENKSCLADVEVKLLGFDAMIKILSRRRPGQLIKTIAALEDLHLSILHTNITTMEQTVLYSFNVKITSETRFTAEDIASSIQQIFSFIHANTNISGSSNLGNIVFT
binding [2]: binds

B3: cLUC-FAMA (FAMA in pCAMBIA1300-cLUC) (protein, UniProt Q56YJ8 1-414)
chain: MDKDYSAPNFLGESSGGNDDNSSGMIDYMFNRNLQQQQKQSMPQQQQHQLSPSGFGATPFDKMNFSDVMQFADFGSKLALNQTRNQDDQETGIDPVYFLKFPVLNDKIEDHNQTQHLMPSHQTSQEGGECGGNIGNVFLEEKEDQDDDNDNNSVQLRFIGGEEEDRENKNVTKKEVKSKRKRARTSKTSEEVESQRMTHIAVERNRRKQMNEHLRVLRSLMPGSYVQRGDQASIIGGAIEFVRELEQLLQCLESQKRRRILGETGRDMTTTTTSSSSPITTVANQAQPLIITGNVTELEGGGGLREETAENKSCLADVEVKLLGFDAMIKILSRRRPGQLIKTIAALEDLHLSILHTNITTMEQTVLYSFNVKITSETRFTAEDIASSIQQIFSFIHANTNISGSSNLGNIVFT
binding [3]: binds

B4: FAMA-HA (35Spro:FAMA-HA) (protein, UniProt Q56YJ8 1-414)
chain: MDKDYSAPNFLGESSGGNDDNSSGMIDYMFNRNLQQQQKQSMPQQQQHQLSPSGFGATPFDKMNFSDVMQFADFGSKLALNQTRNQDDQETGIDPVYFLKFPVLNDKIEDHNQTQHLMPSHQTSQEGGECGGNIGNVFLEEKEDQDDDNDNNSVQLRFIGGEEEDRENKNVTKKEVKSKRKRARTSKTSEEVESQRMTHIAVERNRRKQMNEHLRVLRSLMPGSYVQRGDQASIIGGAIEFVRELEQLLQCLESQKRRRILGETGRDMTTTTTSSSSPITTVANQAQPLIITGNVTELEGGGGLREETAENKSCLADVEVKLLGFDAMIKILSRRRPGQLIKTIAALEDLHLSILHTNITTMEQTVLYSFNVKITSETRFTAEDIASSIQQIFSFIHANTNISGSSNLGNIVFT
binding [4]: binds
